According to publication doi:10.1101/152272:
No constants are given. Whether binding was seen depends on the method and setting. Some entries that bind do so weakly or less than the wild type.

By UniProt entry, the sequences of proteins in these tests, tags left out. Residues count along the entry.
UniProt P02769, residues 25-607: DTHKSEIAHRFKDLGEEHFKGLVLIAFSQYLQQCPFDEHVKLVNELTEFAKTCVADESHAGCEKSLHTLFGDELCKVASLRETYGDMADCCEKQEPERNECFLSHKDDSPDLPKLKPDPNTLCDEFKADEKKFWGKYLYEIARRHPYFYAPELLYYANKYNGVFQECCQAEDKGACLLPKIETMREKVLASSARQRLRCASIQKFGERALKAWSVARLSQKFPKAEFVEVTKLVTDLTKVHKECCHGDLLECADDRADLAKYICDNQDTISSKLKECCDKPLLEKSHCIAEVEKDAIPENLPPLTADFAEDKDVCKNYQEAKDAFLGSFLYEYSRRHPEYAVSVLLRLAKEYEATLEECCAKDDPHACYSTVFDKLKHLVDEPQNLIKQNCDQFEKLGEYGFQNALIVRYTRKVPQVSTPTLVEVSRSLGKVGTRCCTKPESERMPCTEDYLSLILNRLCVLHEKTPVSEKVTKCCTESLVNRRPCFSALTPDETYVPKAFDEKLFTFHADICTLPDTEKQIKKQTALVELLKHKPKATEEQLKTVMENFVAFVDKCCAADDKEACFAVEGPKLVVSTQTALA

Target: Bovine serum albumin (bovine) (UniProt P02769)
Experiment: native gel or EMSA

- binding: binds weakly
Substance: Bovine serum albumin (from UniProt P02769 25-607)
